Measurements: paper PMC10529029
These are yes or no findings as the source states them, for the method shown. In cells and extracts the contact can be indirect. Some entries that bind do so weakly or less than the wild type.

Target: T1, Peroxisome proliferator-activated receptor gamma coactivator 1 alpha (PGC1α) (UniProt Q9UBK2)
T1 sequence: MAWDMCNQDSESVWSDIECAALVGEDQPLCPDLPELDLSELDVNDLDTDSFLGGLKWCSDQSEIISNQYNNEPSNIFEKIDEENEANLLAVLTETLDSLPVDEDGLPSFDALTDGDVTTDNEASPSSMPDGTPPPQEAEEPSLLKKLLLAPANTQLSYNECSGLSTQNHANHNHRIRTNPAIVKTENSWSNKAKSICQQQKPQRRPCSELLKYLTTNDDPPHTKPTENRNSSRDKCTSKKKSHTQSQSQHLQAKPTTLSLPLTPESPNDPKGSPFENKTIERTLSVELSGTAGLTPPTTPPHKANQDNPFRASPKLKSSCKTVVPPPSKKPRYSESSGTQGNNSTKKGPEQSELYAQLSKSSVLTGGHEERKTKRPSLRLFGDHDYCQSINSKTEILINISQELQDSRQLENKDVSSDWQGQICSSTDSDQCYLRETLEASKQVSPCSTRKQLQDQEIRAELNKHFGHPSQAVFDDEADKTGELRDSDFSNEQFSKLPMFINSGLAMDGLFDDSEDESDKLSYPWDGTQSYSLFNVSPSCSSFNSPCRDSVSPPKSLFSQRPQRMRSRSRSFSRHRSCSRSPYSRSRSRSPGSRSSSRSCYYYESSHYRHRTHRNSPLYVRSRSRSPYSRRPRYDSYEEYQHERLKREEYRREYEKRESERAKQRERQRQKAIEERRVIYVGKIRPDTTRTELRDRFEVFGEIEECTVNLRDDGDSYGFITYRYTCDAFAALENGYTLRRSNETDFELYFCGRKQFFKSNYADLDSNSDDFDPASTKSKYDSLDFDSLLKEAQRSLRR
Experiment: co-IP; lysate of rPGC1α-treated BC cells, pre-cleared with protein-G agarose; anti-PGC1α or control IgG, protein-G agarose beads overnight at 4 °C; western blot for ERRα in input, IgG and PGC1α immunoprecipitates

- binding: binds
B1: Estrogen-related receptor alpha (ERRα) (protein, UniProt P11474 1-423)
chain: MSSQVVGIEPLYIKAEPASPDSPKGSSETETEPPVALAPGPAPTRCLPGHKEEEDGEGAGPGEQGGGKLVLSSLPKRLCLVCGDVASGYHYGVASCEACKAFFKRTIQGSIEYSCPASNECEITKRRRKACQACRFTKCLRVGMLKEGVRLDRVRGGRQKYKRRPEVDPLPFPGPFPAGPLAVAGGPRKTAAPVNALVSHLLVVEPEKLYAMPDPAGPDGHLPAVATLCDLFDREIVVTISWAKSIPGFSSLSLSDQMSVLQSVWMEVLVLGVAQRSLPLQDELAFAEDLVLDEEGARAAGLGELGAALLQLVRRLQALRLEREEYVLLKALALANSDSVHIEDAEAVEQLREALHEALLEYEAGRAGPGGGAERRRAGRLLLTLPLLRQTAGKVLAHFYGVKLEGKVPMHKLFLEMLEAMMD
